Measured values: patent publication US20170355992
For part of these data: A negative result means that nothing was seen under these conditions. For part of these data: The comparison behind a weaker result is the experiment's own reference, which may not be listed here. For part of these data: Where a protein sequence is shown, tags need not be part of it.

Chains of the proteins cited; added tags and fusions are not shown. A line that says so, or that is headed by a name, gives the form on record, which may keep a tag or linker.
Coagulation Factor Va (FVa), modified (Homo sapiens), one chain, as listed by the source: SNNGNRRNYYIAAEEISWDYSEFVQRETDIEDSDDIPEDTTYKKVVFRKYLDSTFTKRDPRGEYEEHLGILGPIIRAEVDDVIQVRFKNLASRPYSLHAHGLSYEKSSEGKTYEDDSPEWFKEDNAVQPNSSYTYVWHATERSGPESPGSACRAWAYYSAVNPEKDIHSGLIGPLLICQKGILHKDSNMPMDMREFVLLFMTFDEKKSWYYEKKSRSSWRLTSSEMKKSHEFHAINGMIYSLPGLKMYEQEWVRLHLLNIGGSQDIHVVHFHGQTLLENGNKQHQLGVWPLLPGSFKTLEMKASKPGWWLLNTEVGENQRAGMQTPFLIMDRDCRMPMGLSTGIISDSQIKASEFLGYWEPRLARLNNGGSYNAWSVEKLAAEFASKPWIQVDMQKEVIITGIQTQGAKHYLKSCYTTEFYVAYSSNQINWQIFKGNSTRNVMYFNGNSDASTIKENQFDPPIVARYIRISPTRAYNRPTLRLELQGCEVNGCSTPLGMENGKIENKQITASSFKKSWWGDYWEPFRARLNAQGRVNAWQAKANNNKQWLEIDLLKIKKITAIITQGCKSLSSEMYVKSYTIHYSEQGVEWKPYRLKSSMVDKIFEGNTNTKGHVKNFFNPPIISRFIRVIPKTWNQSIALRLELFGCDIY

How the values were obtained:
[1] = system: Coagulation Factor Va (FVa), modified (Homo sapiens); assay: inhibition of the protein; settings: 2'-F C and U, label: 5'-32P, dose not given here
[2] = target: T1, Factor V heavy chain (UniProt P12259); assay: SPR; settings: 2'-F C and U; 5' biotin and PEG11 spacer; three runs: 105.1, 59.46, 57.77; HBS 2 mM CaCl2, 25 C; label: 5'-biotin; variant of T18.3
T1 sequence (looked up, limits assumed): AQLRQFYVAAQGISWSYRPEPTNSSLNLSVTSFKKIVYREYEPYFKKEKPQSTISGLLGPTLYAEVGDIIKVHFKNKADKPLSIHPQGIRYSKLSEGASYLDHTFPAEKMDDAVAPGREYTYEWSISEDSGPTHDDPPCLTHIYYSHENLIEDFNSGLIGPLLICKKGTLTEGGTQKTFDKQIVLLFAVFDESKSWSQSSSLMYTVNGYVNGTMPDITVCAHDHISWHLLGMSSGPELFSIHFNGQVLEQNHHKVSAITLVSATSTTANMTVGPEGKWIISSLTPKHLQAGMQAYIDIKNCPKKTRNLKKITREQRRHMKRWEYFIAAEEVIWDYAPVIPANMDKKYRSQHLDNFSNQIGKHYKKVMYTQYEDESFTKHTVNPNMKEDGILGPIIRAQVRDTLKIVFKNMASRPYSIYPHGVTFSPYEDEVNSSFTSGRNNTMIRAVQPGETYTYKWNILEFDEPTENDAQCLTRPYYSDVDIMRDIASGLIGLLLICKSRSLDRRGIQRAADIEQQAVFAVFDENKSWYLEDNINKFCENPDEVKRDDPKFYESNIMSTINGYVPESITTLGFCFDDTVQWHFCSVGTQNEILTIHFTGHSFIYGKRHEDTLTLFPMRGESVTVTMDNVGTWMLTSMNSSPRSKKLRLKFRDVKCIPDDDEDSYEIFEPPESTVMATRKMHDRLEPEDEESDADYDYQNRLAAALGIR

## GGAUCCAACGCACAAUUACGUGCCUUGUCAGACGACUCGCUGAGGAUCC [11HMT]
[1]; reduces meizothrombin generation, less potent than T18.3, variant of FVa R9c11
  functional effect of the aptamer: active

## GGAUCCAACGCACAAUUACGUGCCGGUUCAGACGACUCGCUGAGGAUCC [11Mut2]
[1]; no significant reduction of meizothrombin generation, variant of 11HMT
  functional effect of the aptamer: not active

## GGACUUGGAUAACCUCACCGCAAUGGCGGCUUGUCAGACGACUCGCUGAGGAUCCGAG [T18.3 biotinylated]
[2]
  binding result: binds more weakly
